In patent US20190177415A1:
These are yes or no findings as the source states them, for the method shown.

Sequences of proteins named here, by UniProt entry; tags and fusion partners are left off. A change or cut given only in a name is not applied to a line headed by its entry.
UniProt Q9H7M9: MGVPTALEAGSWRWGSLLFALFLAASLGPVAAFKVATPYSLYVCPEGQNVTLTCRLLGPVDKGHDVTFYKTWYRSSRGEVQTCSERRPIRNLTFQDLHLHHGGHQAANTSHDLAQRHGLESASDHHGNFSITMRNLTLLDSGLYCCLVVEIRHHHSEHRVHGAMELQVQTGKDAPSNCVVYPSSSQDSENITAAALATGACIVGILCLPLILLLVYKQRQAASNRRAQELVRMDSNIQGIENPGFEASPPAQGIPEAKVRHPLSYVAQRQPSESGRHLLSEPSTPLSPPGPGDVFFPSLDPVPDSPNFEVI

Tests used:
Test in all cases: condition: MFI <20-fold over isotype control at 2 ug/ml; flow cytometry, transfected 293t cells
[1] = molecular target: chimeric C10orf54: first half of IgV human and remainder (including loop) mouse (construct CC7) (human/mouse chimera)
[2] = molecular target: T1, chimeric C10orf54: mouse with human loop (construct CC10) (human/mouse chimera)
T1 sequence: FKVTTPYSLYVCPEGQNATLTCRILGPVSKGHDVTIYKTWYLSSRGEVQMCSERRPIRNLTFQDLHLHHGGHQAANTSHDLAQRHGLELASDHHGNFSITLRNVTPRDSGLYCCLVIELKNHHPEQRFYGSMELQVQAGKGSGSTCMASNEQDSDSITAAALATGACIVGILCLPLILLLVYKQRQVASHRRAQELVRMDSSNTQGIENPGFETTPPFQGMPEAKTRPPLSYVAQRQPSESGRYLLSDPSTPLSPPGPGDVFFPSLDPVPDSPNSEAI

[3] = molecular target: T2, chimeric C10orf54: mouse IgV with human STALK (construct CC6) (human/mouse chimera)
T2 sequence: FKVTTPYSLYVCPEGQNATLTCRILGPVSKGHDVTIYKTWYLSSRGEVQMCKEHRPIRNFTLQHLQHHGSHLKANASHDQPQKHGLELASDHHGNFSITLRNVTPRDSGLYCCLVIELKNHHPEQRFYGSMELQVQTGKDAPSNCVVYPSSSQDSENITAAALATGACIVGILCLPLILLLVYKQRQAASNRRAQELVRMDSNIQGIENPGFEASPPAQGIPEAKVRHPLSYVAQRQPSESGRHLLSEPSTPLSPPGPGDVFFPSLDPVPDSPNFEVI

[4] = molecular target: T3, full length mouse C10orf54 (construct CC2) (mouse) (UniProt Q9D659)
T3 sequence: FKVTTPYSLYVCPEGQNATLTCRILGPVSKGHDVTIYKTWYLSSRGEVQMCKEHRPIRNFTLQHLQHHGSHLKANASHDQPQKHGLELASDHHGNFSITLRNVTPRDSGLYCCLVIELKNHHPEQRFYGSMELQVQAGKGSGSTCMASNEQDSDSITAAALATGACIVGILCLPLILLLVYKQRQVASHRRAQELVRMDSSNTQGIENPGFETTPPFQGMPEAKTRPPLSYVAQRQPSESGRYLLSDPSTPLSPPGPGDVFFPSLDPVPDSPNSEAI

[5] = molecular target: chimeric C10orf54: human with mouse loop (construct CC9) (human/mouse chimera) (UniProt Q9H7M9)
[6] = molecular target: T4, chimeric C10orf54: first half of IgV mouse and remainder (including loop) human (construct CC8) (human/mouse chimera) (UniProt Q9H7M9)
T4 sequence: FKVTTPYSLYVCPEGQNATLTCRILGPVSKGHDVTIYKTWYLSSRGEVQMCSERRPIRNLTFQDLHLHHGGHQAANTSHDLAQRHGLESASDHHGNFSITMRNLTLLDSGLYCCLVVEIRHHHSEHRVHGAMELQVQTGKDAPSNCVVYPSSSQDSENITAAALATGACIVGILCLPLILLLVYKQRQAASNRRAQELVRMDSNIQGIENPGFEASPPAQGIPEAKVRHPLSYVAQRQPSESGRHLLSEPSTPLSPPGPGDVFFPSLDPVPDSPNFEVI

Measured: binding

B1: murine monoclonal antibody 353A (antibody, V domains shown)
VH: EVKLLESGGGLVQPGGSLKLSCAASGFDFSRYWMNWVRQAPGKGLEWIGEINPDSSTINYTPSLKDKFIISRDNAKNTLYLQMSKVRYEDTALYYCARPGEIYYYGSYWFAYWGQGTLVTVSA
VL: DIVLTQSPASLAVSLGQRATISCRASESVEYYGTSLMQWFQQKPGQPPKLLIYAASNVESRVPARFSGSGSGTDFSLNIHPVEEDDIAMYFCQQSRKDPWTFGGGTKLEIK
no binding: [1] | [2] | [3] | [4]

B2: murine monoclonal antibody 215A (antibody, V domains shown)
VH: EVQLQQSGPELVKPGASMKISCKASGFSFTGYTMNWVKQSHGKNLEWIGLISPYNGGTSYNQKFKGKATLTVDKSSSTAYMELLSLTSEDSAVYYCARRAYGYAMDYWGQGTSVTVSS
VL: QIVLTQSPAIMSASPGEKVTMTCSASSSVSYMFWYQQKPGSSPRLLIYDTSNLASGVPLRFSGSGSGTSYSLTISRMEAEDAATYYCQQWSSYPFTFGSGTKLEIK
no binding: [5] | [1] | [2] | [3] | [4]

B3: murine monoclonal antibody 76E1 (antibody, V domains shown)
VH: EVQLLQSGPELEKPGASVKISCKASGYSFTGYNMNWVKQSNGKSLEWIGNIDPYYDYTSYNLKFKDKATLTVDKSSSTAYMQLKSLTSEDSAVYYCATSTMITPFDYWGQGTTLTVSS
VL: DVLMTQTPLSLPVSLGDQASISCRSSQSIVHSNGNTYLEWYLQKPGQSPKLLIYKVSNRFSGVPDRFSGSGSGTDFTLKINRVEAEDLGVYYCFQGSHVPWTFGGGTKLEIK
no binding: [5] | [1] | [2] | [3] | [4]

B4: murine monoclonal antibody 53A (antibody, V domains shown)
VH: EVQLQQSGPELVKPGASVKMSCKASGYTFTSYFMHWVKQKPGQGLEWIGYIYPYNDGTKYNEKFKGKATLTSDKSSSTAYMELSSLTSEDSAVYYCARFDYDTLRYWGQGTTLTVSS
VL: DVVLTQTPLSLPVNIGDQASISCKSTKSLLNSDGFTYLDWYLQKPGQSPQLLIYLVSNRFSGVPDRFSGSGSGTDFTLKISRVEAEDLGVYYCFQSNYFPWTFGGGTKLEIK
no binding: [5] | [1] | [2] | [3] | [4]

B5: murine monoclonal antibody 259A (antibody, V domains shown)
VH: EVQLQQSGPELVKPGASVKMSCKASGYTFTSYFMHWVKQKPGQGLEWIGYIYPYNDGTKYNEKFKGKATLTSDKSSSTAYMDLSSLTSEDSAVYYCARFDYDTLRYWGQGTTLTVSS
VL: DVVLTQTPLSLPVNIGDQASISCKSTKSLLNSDGFTYLDWYLQKPGQSPQLLIYLISNRFSGVPDRFSGSGSGTDFTLKISRVEAEDLGVYYCFQSNYFPWTFGGGTKLEIK
no binding: [5] | [1] | [2] | [3] | [4]

B6: murine monoclonal antibody 33A (antibody, V domains shown)
VH: QVQLQQSGAELMKPGASVKISCKATGYTFSSYWIEWVKQRPGHGLEWIGEILPGSGSTSYNEKFKGKATFTADTSSNTAYMQLSGLTSEDSAVYYCARWLLYYYAMVYWGQGTSVTVSS
VL: DVLMTQTPLSLPVSLGDQASISCRSSQSIVHSNGNTYLEWYLQKPGQSPKLLIYKVSNRFSGVPDRFSGSGSGTDFTLKISRVEAEDLGVYYCFQGSHVPYTFGGGTKLEIK
no binding: [5] | [1] | [3] | [4]

B7: murine monoclonal antibody 39A (antibody, V domains shown)
VH: QVQLQQSGAELMKPGASVKISCKATGYTFSSNWIEWVKQRPGHGLEWIGEILPGSGSTSYNEKFKGKATFTADTSSNTAYMQLSSLTSEDSAVYYCARWLLYYYAMDYWGQGTSVTVSS
VL: DVLMTQTPLSLPVSLGDPASISCRSSQSIVHNNGNTYLEWYLQKPGQSPKLLIYKVSNRFSGVPDRFSGSGSGTDFTLKISRVEAEDLGVYYCFQGSHVPYTFGGGTKLEIK
no binding: [5] | [1] | [2] | [3] | [4]

B8: murine monoclonal antibody 124A (antibody, V domains shown)
VH: QVQLQQSGAELMKPGASVKISCKATGYTFSSNWIEWVKQRPGHGLEWMGEILPGSGSTSYNEKFKGKATFTADTSSNTAYMQLSSLTSEDSAVYYCARWLLYYYAMDFWGQGTSVTVSS
VL: DVLMTQTPLSLPVSLGDQASISCRSSQSIVHNNGNTYLEWYLQKPGQSPKLLIYKVSNRFSGVPDRFSGSGSGTDFTLKISRVEAEDLGVYYCFQGSHVPYTFGGGTKLEIK
no binding: [5] | [1] | [2] | [3] | [4]

B9: murine monoclonal antibody 175A (antibody, V domains shown)
VH: QVQLQQSGAELMKPGASVKISCKATGYTFSTHWIEWVKQRPGHGLEWIGEILPGSGSTSYNEKFKGKATFTADTSSNTAYMQLSSLTSEDSAVYYCARWLLYYYAMDYWGQGTSVTVSS
VL: DVLMTQTPLSLPVSLGDQASISCRSSQSIVHSNGNTYLEWYLQKPGQSPKLLIYKLSNRFSGVPDRFSGSGSGTDFTLKISRVEAEDLGVYYCFQGSHFPYTFGGGTKLEIK
no binding: [5] | [1] | [2] | [3] | [6] | [4]

B10: murine monoclonal antibody 321D (antibody, V domains shown)
VH: QVQLQQSGAELMKPGAAVKISCKATGYTFSSHWIEWVKQRPGHGLEWIGEILPGSGSTDYNEKFKGKATFTADTSSNTAYMQLSSLTSEDSAVYYCARWLLYYYAMDYWGQGTSVTVSS
VL: DVLMTQTPLSLPVSLGDQASISCRSSQSIVHSNGNTYLEWYLQKPGQSPKLLIYKVSNRFSGVPDRFSGSGSGTDFTLKITRVEAEDLGVYYCFQGSHVPFTFGGGTKLEIK
no binding: [5] | [1] | [3] | [4]

B11: murine monoclonal antibody 141A (antibody, V domains shown)
VH: QVQLQQSGAELMKPGASVKISCKATGYTFSRYWIEWVKQRPGHGLEWIGEILPGSGSTNYNEKFKGKATFTADTSSNTAYMQLSSLTSEDSAVYYCAGEEVYDGYPWFGYWGQGTLVTVSA
VL: QIVLSQSPAILSASPGEKVTMTCRASSSLSYMHWYQQKPGSSPKPWIYATSNLASGVPARFSGSGSGTSYSLTISRVEAEDAATYYCQQWSSNPYTFGGGTKLEIK
no binding: [1] | [2] | [3] | [4]
